Reference: PubChem BioAssay AID1259308 (NCATS, 2017)

Purpose: 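Knock-downs that increase output of a recombinant reporter protein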 (primary screen)
System: human HEK293 embryonic kidney cells stably expressing firefly luciferase (HEK-CMV-Luc2-Hygro)
Reagents: single siRNA against human genes, 0.8 pmol siRNA per well
Timing: 72 h
Measurement: 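Luciferase light (ONE-Glo) measured on one replicate plate set and viability (CellTiter-Glo) on the other, scaled to a negative control siRNA, with robust z-scores and luciferase per cell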
Scale: total luciferase, z-score and total luciferase, % of control: higher = more reporter protein produced; luciferase per cell, z-score: higher = more reporter output per viable cell
Call rule: 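An siRNA counts as active if its total luciferase robust z-score exceeds 3; genes with two or more such siRNAs out of three were retested with fresh siRNAs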
Meaning of the calls: active = raised luciferase; inactive = no rise
The deposit covers about 59,000 reagents; this is an unselected part. About 1,510 of all reagents (2.6%) were called active. 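Calls use total luciferase alone and ignore viability, so some active siRNAs may act by altering cell number.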 Unmarked entries are inactive. The numbers tell different reagents against one gene apart. Not all columns of the deposit are shown.

gene symbol	reagent no.	total luciferase, z-score	total luciferase, % of control	luciferase per cell, z-score
NLRP4 (GeneID 147945)	1	0.725	96.3	-0.496
NLRP4 (GeneID 147945)	2	0.125	84.4	0.0353
NLRP4 (GeneID 147945)	3	0.496	91.7	0.671
METAP1 (GeneID 23173)	1	0.703	95.9	0.571
METAP1 (GeneID 23173)	2	1.39	110	1.53
METAP1 (GeneID 23173)	3	-1.16	58.7	-1.42
PXT1 (GeneID 222659)	1	-0.688	68.2	-0.655
PXT1 (GeneID 222659)	2	1.52	112	0.803
PXT1 (GeneID 222659)	3	-2.44	33.5	-2.37
MIGA1 (GeneID 374986)	1	0.506	91.9	0.822
MIGA1 (GeneID 374986)	2	1.85	119	0.928
MIGA1 (GeneID 374986)	3	2.83	138	2.09
DXO (GeneID 1797)	1	-0.28	76.3	0.0577
DXO (GeneID 1797)	2	-1.25	57.1	-0.956
DXO (GeneID 1797)	3	1.01	102	0.863
UBA7 (GeneID 7318)	1	0.581	93.4	1.04
UBA7 (GeneID 7318)	2	0.711	96	0.396
UBA7 (GeneID 7318)	3	0.163	85.1	-0.197
LOC441347 (retired record) (GeneID 441347)	1	1.89	119	1.38
LOC441347 (retired record) (GeneID 441347)	2	0.632	94.5	0.024
LOC441347 (retired record) (GeneID 441347)	3	0.918	100	0.318
PTBP3 (GeneID 9991)	1	-1.29	56.2	-1.21
PTBP3 (GeneID 9991)	2	2.8	138	1.27
PTBP3 (GeneID 9991)	3	-0.573	70.5	-0.063
ABRACL (GeneID 58527)	1	0.428	90.4	0.152
ABRACL (GeneID 58527)	2	2.65	135	1.59
ABRACL (GeneID 58527)	3	1.64	115	1.5
EIF4E (GeneID 1977)	1	0.406	90	0.16
EIF4E (GeneID 1977)	2	1.92	120	1.04
EIF4E (GeneID 1977)	3	-0.684	68.3	-0.709
SLFN11 (GeneID 91607)	1	-0.322	75.5	-0.591
SLFN11 (GeneID 91607)	2	1.38	109	0.939
SLFN11 (GeneID 91607)	3	-1.3	56	-0.935

Taken from above:
LOC441347 (retired record) (GeneID 441347) #2, total luciferase, % of control = 94.5
Under “total luciferase, z-score”, PTBP3 (GeneID 9991) #1 has -1.29
Result of UBA7 (GeneID 7318) #1 under “total luciferase, % of control”: 93.4
Value for PTBP3 (GeneID 9991) #2 under “total luciferase, % of control”: 138
SLFN11 (GeneID 91607) #2, total luciferase, % of control → 109
For “total luciferase, z-score”, PXT1 (GeneID 222659) #1 is entered as -0.688

More records:
gene symbol	reagent no.	total luciferase, z-score	total luciferase, % of control	luciferase per cell, z-score
PRKCE (GeneID 5581)	1	-1.34	55.2	-0.96
PRKCE (GeneID 5581)	2	0.461	91.1	0.0686
PRKCE (GeneID 5581)	3	1.69	116	1.01
TMEM105 (GeneID 284186)	1	0.788	97.6	0.261
TMEM105 (GeneID 284186)	2	-0.818	65.6	-0.5
TMEM105 (GeneID 284186)	3	0.512	92.1	1.8
MARVELD2 (GeneID 153562)	1	0.697	95.8	0.21
MARVELD2 (GeneID 153562)	2	-2.88	24.5	-3.29
MARVELD2 (GeneID 153562)	3	-0.429	73.4	-0.437
CLDN20 (GeneID 49861)	1	-0.697	68	-0.277
CLDN20 (GeneID 49861)	2	1.89	119	1.99
CLDN20 (GeneID 49861)	3	-0.453	72.9	0.192
TMEM131 (GeneID 23505)	1	0.252	86.9	0.24
TMEM131 (GeneID 23505)	2	-0.333	75.3	-0.398
TMEM131 (GeneID 23505)	3	0.0598	83.1	-0.301
RAB22A (GeneID 57403)	1	1.12	104	0.255
RAB22A (GeneID 57403)	2	1.02	102	0.79
RAB22A (GeneID 57403)	3	-0.33	75.3	-1.22
COTL1 (GeneID 23406)	1	-1.28	56.5	-1.54
COTL1 (GeneID 23406)	2	1.54	113	2.43
COTL1 (GeneID 23406)	3	0.216	86.2	0.715
LINC00607 (GeneID 646324)	1	-1.42	53.6	-1.26
LINC00607 (GeneID 646324)	2	-1.24	57.3	-1.43
LINC00607 (GeneID 646324)	3	0.098	83.8	-0.23
